In US8168625B2, “Pharmaceutical composition based on agonist of benzodiazepine” (Sigma Pharma Ltda., priority 2003, dated 2012):

Experiment: Bioavailability after single dose: sublingual tablets (Examples I-III) versus conventional oral tablets, crossed randomized studies
Conditions: for AUC(0-inf) / AUC(0-t) / Cmax / Tmax / concentration / concentration at 0 min / concentration at 20 min / concentration at 40 min / concentration at 1 h / concentration at 1.5 h / concentration at 2 h / concentration at 2.5 h / concentration at 4 h / concentration at 6 h / concentration at 8 h / concentration at 10 h / concentration at 12 h / concentration at 24 h / concentration at 3.5 h: male, human, plasma; for concentration at 3.5 h: 10 mg
Procedure: Three studies were carried out, each of them with eight healthy volunteers of the male sex, recruited after information on the nature and characteristics of the principles included in the scope of the study. Each study, composed of two periods of treatment, was carried out according to a crossed and randomized scheme. All individuals received the previously established dose of the active ingredient in the form of conventional oral tablets and sublingual tablets, with a period of detoxication of, at least, seven days between the first and the following administration, according to a previously established randomized list. The sublingual tablets were placed under the tongue until complete dissolution, in correspondence with the venous plexus, while the conventional oral tablets were swallowed unbroken with 150 ml of mineral water. Within the intervals of 0-20-40 minutes, 1-1,5-2-2,5-3-3,5-4-6-8-10-[…] and 24 hours after the treatment, 5 ml of blood were collected.

In the case of `CN1C(=O)CN=C(c2ccccc2)c2cc(Cl)ccc21` [DIAZEPAM, diazepam], the AUC(0-inf) is reported as 4970 ± 743 ng·h/mL, the AUC(0-t) is reported as 2730 ± 144 ng·h/mL and the Cmax is reported as 322 ± 13.3 ng/mL. It also gave a Tmax of 45 ± 9 min, a concentration (other: sublingual) of 157 ± 12.1 ng/mL and a concentration at 0 min (other: sublingual) of 0 ng/mL. It also gave a concentration at 20 min (other: sublingual) of 194 ± 31.9 ng/mL, a concentration at 40 min (other: sublingual) of 308 ± 36.9 ng/mL and a concentration at 1 h (other: sublingual) of 274 ± 31.4 ng/mL. The concentration at 1.5 h (other: sublingual) was 210 ± 21.4 ng/mL, the concentration at 2 h (other: sublingual) was 178 ± 13.5 ng/mL and the concentration at 2.5 h (other: sublingual) was 162 ± 14.7 ng/mL. The concentration at 4 h (other: sublingual) was 132 ± 11.7 ng/mL, the concentration at 6 h (other: sublingual) was 123 ± 9 ng/mL and the concentration at 8 h (other: sublingual) was 111 ± 5.54 ng/mL. It also gave a concentration at 10 h (other: sublingual) of 103 ± 5.3 ng/mL, a concentration at 12 h (other: sublingual) of 94.8 ± 8.9 ng/mL and a concentration at 24 h (other: sublingual) of 83.3 ± 11.1 ng/mL. The Tmax (other: sublingual versus oral) was roughly 30 min, the concentration at 3.5 h (other: sublingual) was 146 ± 10.6 ng/mL and the AUC(0-inf) (po) was 5390 ± 1130 ng·h/mL. It also gave an AUC(0-t) (po) of 2910 ± 287 ng·h/mL, a Cmax (po) of 308 ± 30.2 ng/mL and a Tmax (po) of 75 ± 16.2 min. For the same molecule, the concentration (po) was 183 ± 19.4 ng/mL, the concentration at 0 min (po) was 0 ng/mL and the concentration at 20 min (po) was 51.9 ± 7.6 ng/mL. It also gave a concentration at 40 min (po) of 106 ± 13.3 ng/mL, a concentration at 1 h (po) of 276 ± 45.6 ng/mL and a concentration at 1.5 h (po) of 280 ± 36 ng/mL. For the same molecule, the concentration at 2 h (po) was 235 ± 26.1 ng/mL, the concentration at 2.5 h (po) was 203 ± 21.7 ng/mL and the concentration at 4 h (po) was 155 ± 17 ng/mL. It also gave a concentration at 6 h (po) of 134 ± 14.4 ng/mL, a concentration at 8 h (po) of 119 ± 13.1 ng/mL and a concentration at 10 h (po) of 110 ± 13.8 ng/mL. The concentration at 12 h (po) was 103 ± 15.2 ng/mL, the concentration at 24 h (po) was 94.4 ± 14 ng/mL and the concentration at 3.5 h (po) was 166 ± 17.9 ng/mL. The “AUC and Cmax, sublingual versus oral” value (sublingual versus conventional oral tablets) was “comparable”.
